Source: US20030203888A1, “Chromophores” (priority 2001, published 2003)

Assays:
HeLa cells [1] = assay: Transfer of non-covalently protein-bound fluorophore to HeLa cells; type: cell-based, human; conditions: for increase in fluorescence on re-suspension of the cells: HeLa cells after 20 min incubation with non-covalent fluorophore-protein complexes
HeLa cells [2] = assay: Confocal laser scanning microscopy of intracellular localisation; type: cell-based, human; conditions: 514 nm excitation; for cellular localisation: Z-series fluorescence images

| Compound | increase in fluorescence on re-suspension of the cells (HeLa cells [1]) | removal of fluorescence from the solution with removal of the HeLa cells (HeLa cells [1]; non-covalent fluorophore-protein complexes (BSA or avidin), incubated 20 min) | cellular uptake / penetration (HeLa cells [2]) | cellular localisation (HeLa cells [2]) |
| --- | --- | --- | --- | --- |
| COc1ccc(-c2c3nc(cc4ccc([nH]4)c(-c4ccc(NC(C)=O)cc4)c4nc(cc5ccc2[nH]5)C=C4)C(O)C3O)cc1 (stereo not shown) [Example 10, 17,18-Dihydroxy-5-(4-acetamidophenyl)-15-(4-methoxyphenyl)chlorin] | 10 fold | much more marked | – | – |
| Nc1ccc(-c2c3nc(c(-c4cc(O)cc(O)c4)c4ccc([nH]4)c(-c4cc(O)cc(O)c4)c4nc(c(-c5cc(O)cc(O)c5)c5ccc2[nH]5)C=C4)C=C3)cc1 [OH6-NH2, 5-(4-Aminophenyl)-10,15,20-tris(3,5-dihydroxyphenyl)porphyrin] | – | – | not found to penetrate the cellular membrane | localised on the plasma membrane |
| COc1ccc(-c2c3nc(cc4ccc([nH]4)c(-c4ccc(NC(C)=O)cc4)c4nc(cc5ccc2[nH]5)C(O)C4O)C(O)C3O)cc1 (stereo not shown) [Example 12, 7,8,17,18-tetrahydroxy-5-(4-acetamidophenyl)-15-(4-methoxyphenyl)bacteriochlorin] | modest increase | – | – | – |
| OH6-NCS-BSA: conjugate of 10,15,20-tris(3,5-dihydroxyphenyl)5-isothiocyanatophenylporphyrin (OH6-NCS) with BSA | – | – | had entered the cell; also recorded: good conjugate penetration | largely distributed throughout the cytoplasm |

Entries after “also recorded” stand apart in the source; their conditions may differ.
